Experimental data taken from the supplement of paper PMC12819154, “High-throughput peptide-centric local stability assay extends protein–ligand identification to membrane proteins, tissues and bacteria” (Nature Structural & Molecular Biology, 2025).
The other results are listed elsewhere or left out. Most values lie at the level of the controls, where differences are scatter.

Chains of the proteins cited; added tags and fusions are not shown. Lines headed by an entry give the natural chain unless they say otherwise; changes in a name come on top.
UniProt Q9P2E9: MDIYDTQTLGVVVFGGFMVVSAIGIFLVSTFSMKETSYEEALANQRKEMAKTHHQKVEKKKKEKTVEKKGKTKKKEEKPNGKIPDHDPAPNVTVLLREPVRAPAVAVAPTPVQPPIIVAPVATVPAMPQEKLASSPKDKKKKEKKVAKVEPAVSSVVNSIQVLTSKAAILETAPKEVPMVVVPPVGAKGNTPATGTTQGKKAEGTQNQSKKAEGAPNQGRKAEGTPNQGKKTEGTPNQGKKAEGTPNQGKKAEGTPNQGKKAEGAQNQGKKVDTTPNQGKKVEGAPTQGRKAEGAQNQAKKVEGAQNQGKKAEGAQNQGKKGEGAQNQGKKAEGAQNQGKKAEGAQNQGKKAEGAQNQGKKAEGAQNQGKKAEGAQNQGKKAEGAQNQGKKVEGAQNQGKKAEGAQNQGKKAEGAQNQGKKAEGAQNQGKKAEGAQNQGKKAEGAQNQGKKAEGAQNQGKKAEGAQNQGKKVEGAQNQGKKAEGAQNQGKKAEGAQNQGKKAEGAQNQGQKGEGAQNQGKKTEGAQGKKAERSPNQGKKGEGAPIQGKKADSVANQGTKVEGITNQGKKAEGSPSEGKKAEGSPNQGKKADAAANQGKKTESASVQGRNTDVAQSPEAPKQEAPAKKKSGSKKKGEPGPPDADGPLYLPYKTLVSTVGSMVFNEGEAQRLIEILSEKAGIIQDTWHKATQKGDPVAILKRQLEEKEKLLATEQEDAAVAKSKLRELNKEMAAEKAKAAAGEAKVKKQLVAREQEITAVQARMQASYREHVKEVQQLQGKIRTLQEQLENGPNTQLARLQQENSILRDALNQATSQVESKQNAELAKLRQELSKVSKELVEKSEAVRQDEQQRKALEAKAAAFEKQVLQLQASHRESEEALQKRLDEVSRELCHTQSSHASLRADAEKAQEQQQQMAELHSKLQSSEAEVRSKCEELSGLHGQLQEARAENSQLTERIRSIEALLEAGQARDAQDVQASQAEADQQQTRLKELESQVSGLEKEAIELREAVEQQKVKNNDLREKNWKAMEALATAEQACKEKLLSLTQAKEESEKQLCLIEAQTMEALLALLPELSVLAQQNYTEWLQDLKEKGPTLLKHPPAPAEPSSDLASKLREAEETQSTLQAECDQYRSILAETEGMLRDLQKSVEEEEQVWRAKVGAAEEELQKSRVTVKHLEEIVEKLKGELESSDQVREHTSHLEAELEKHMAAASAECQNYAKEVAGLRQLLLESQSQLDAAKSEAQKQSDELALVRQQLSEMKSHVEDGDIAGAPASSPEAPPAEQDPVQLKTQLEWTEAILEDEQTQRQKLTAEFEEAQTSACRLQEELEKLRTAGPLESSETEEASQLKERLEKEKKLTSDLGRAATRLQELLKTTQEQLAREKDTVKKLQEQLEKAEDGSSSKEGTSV
UniProt Q9NYL9: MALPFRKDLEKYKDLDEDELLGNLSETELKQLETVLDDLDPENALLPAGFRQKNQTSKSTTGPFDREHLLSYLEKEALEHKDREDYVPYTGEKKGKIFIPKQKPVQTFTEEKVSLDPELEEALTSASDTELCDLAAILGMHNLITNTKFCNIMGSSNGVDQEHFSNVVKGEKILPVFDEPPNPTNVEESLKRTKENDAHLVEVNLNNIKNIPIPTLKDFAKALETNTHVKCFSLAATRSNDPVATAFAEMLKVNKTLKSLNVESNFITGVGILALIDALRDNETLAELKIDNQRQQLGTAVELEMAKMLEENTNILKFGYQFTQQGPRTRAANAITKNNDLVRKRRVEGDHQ
UniProt Q9NX31: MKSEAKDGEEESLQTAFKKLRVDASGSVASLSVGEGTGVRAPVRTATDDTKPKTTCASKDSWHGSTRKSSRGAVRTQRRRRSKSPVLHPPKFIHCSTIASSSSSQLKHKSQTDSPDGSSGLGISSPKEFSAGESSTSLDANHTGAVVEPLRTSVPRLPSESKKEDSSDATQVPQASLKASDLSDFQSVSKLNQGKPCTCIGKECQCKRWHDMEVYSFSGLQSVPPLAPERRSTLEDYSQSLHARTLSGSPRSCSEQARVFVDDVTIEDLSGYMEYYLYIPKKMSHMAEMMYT
UniProt Q9UHA4, whole entry: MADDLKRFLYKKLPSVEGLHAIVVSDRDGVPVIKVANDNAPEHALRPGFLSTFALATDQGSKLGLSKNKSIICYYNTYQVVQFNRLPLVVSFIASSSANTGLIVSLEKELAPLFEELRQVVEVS
UniProt Q9P2T1: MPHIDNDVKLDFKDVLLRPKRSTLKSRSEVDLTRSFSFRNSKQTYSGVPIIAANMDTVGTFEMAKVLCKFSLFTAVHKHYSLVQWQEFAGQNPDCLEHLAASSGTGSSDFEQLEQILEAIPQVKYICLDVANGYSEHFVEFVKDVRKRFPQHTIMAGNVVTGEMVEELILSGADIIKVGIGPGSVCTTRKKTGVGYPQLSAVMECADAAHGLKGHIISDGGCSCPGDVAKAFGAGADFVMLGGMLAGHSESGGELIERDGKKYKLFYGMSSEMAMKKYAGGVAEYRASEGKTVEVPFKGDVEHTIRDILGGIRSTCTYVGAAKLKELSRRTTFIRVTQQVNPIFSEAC
UniProt Q9NYA4: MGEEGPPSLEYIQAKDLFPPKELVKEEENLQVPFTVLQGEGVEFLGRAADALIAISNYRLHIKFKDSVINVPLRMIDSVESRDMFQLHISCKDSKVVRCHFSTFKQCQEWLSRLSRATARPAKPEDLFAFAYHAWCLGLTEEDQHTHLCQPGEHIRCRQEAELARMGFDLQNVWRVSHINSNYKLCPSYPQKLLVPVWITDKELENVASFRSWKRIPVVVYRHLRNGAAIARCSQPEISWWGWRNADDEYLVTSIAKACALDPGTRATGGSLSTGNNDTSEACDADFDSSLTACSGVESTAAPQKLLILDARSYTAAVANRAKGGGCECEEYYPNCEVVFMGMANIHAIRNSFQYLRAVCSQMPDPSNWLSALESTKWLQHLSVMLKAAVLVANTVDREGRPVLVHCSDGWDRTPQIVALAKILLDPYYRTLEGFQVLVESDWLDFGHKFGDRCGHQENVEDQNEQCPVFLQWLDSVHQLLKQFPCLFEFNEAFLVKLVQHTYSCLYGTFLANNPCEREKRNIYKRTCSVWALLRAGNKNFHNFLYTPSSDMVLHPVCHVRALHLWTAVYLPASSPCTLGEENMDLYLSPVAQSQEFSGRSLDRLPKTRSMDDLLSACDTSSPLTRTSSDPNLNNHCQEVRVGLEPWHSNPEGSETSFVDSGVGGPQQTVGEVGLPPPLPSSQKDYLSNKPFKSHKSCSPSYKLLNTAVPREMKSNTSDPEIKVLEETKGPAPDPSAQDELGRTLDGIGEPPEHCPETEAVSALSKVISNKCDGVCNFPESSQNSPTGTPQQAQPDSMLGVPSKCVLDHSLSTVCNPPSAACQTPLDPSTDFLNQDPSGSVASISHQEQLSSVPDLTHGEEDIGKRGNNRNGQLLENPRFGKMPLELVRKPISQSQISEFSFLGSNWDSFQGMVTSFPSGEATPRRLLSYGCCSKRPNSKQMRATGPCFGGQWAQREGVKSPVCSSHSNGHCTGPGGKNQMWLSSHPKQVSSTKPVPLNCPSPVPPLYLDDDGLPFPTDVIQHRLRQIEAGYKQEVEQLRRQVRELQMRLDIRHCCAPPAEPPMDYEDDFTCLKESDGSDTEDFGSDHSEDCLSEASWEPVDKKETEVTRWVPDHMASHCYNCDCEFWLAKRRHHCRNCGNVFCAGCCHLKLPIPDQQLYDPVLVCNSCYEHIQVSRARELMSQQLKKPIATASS
UniProt Q9P2K8: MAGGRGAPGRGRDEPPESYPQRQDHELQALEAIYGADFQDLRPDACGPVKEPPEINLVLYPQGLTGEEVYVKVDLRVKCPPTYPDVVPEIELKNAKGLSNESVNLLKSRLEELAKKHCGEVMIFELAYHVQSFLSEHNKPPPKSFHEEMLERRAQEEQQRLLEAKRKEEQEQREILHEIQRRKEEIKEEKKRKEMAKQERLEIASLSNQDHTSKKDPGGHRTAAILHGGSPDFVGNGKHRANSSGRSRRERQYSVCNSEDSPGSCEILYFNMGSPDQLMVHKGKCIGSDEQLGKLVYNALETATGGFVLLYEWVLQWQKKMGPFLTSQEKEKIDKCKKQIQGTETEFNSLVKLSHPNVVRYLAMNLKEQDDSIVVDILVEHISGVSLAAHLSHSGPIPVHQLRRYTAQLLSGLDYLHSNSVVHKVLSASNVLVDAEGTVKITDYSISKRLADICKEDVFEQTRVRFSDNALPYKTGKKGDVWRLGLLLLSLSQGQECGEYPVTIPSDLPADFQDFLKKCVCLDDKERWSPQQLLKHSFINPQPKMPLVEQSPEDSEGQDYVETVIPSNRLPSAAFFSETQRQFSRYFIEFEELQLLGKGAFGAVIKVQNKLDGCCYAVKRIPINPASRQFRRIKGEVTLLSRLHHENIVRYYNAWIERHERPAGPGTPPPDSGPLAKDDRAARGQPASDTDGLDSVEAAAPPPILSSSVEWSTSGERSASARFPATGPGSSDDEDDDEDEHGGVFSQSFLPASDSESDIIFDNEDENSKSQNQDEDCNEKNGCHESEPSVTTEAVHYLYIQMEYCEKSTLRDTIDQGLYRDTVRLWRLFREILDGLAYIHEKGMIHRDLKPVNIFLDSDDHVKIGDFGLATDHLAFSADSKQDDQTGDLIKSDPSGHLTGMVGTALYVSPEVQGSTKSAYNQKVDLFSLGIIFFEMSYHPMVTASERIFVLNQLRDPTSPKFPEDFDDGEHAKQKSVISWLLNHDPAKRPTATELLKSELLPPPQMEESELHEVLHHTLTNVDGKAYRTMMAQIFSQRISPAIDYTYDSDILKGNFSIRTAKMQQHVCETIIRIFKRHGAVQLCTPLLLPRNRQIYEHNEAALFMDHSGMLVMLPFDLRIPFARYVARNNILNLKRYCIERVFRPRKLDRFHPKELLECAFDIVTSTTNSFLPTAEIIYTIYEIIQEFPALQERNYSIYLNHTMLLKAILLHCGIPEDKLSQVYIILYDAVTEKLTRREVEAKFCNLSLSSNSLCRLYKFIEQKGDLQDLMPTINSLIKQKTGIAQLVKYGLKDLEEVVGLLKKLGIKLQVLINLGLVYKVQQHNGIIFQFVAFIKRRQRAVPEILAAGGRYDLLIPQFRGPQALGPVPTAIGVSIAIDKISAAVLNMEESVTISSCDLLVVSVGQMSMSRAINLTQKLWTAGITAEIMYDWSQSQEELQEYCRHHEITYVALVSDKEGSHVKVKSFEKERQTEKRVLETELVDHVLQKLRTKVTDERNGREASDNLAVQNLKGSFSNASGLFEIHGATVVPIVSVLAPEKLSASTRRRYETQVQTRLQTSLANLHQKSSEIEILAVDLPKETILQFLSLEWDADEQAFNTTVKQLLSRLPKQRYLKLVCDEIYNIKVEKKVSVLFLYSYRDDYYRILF
UniProt Q9UBM7: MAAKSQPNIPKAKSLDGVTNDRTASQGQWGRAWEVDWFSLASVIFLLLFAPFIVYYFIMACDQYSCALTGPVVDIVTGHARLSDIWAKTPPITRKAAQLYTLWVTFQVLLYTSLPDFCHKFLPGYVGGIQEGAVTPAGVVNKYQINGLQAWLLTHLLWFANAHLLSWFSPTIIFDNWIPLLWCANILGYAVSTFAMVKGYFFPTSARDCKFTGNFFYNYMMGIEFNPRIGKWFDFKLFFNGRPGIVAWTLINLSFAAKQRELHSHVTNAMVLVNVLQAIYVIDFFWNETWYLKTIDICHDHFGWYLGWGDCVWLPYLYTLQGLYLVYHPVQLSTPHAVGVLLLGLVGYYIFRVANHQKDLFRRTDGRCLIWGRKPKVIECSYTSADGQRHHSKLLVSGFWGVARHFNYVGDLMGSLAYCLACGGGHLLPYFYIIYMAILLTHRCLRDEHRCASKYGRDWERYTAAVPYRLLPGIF
UniProt Q9P1Z2: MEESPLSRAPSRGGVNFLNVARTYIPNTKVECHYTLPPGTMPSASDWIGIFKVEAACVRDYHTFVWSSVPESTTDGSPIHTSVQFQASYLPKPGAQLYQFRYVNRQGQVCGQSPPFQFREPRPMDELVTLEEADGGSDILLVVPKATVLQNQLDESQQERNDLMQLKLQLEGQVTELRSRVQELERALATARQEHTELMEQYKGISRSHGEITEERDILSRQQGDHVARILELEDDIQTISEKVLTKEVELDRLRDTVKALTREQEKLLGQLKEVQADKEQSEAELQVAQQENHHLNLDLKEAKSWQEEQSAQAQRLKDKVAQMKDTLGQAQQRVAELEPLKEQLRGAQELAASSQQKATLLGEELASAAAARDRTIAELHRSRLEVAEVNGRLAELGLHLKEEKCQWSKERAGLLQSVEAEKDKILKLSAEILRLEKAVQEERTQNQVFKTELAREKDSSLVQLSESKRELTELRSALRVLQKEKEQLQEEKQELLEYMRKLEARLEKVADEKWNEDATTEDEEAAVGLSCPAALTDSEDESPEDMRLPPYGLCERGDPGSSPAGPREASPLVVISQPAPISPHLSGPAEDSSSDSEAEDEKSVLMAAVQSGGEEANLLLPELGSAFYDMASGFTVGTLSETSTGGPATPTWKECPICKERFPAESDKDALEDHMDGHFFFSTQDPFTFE

Compound: Cc1nc(Nc2ncc(C(=O)Nc3c(C)cccc3Cl)s2)cc(N2CCN(CCO)CC2)n1 [dasatinib]
Experiment: log2 fold change of tryptic peptide abundance, ligand vs vehicle (limited proteolysis) (log2 ratio); higher = more trypsin-susceptible (destabilized)
Details: ligand concentration: 5 uM; sample: K562 cleared lysate

Target	log2 fold change
DDIT4 (peptide sequence: LAYSEPCGLR, peptide start residue: 134) (UniProt Q9NX09)	-0.0705
NIPSNAP3A (peptide sequence: SYYLKPSK, peptide start residue: 41) (UniProt Q9UFN0)	0.13
GAR1 (peptide sequence: FYIDPYK, peptide start residue: 144) (UniProt Q9NY12)	-0.0635
HDAC6 (peptide sequence: LVDAVLGAEIR, peptide start residue: 194) (UniProt Q9UBN7)	0.256
SUCLA2 (peptide sequence: GKGTFESGLKGGVK, peptide start residue: 107) (UniProt Q9P2R7)	0.402
PRKAG2 (peptide sequence: FDVINLAAEK, peptide start residue: 244) (UniProt Q9UGJ0)	-0.188
ZMYM2 (peptide sequence: NTLENMLVR, peptide start residue: 1349) (UniProt Q9UBW7)	0.135
RRBP1 (peptide sequence: TESASVQGR, peptide start residue: 600) (UniProt Q9P2E9)	-0.817
HMGXB4 (peptide sequence: AITSPLAAGSKPSKK, peptide start residue: 115) (UniProt Q9UGU5)	-0.0825
CWC15 (peptide sequence: KEQEQKAEEER, peptide start residue: 147) (UniProt Q9P013)	0.313
UniProt Q9NXF7 (peptide sequence: YSTTWKPLNPNSWLYHAK, peptide start residue: 62)	0.44
MRPL16 (peptide sequence: NMFAIWR, peptide start residue: 117) (UniProt Q9NX20)	-0.145
FAM135A (peptide sequence: SSDDCHDHQTTPSLGVR, peptide start residue: 639) (UniProt Q9P2D6)	-0.344
ACTR3B (peptide sequence: HNPVFGVMS, peptide start residue: 410) (UniProt Q9P1U1)	-0.411
AHSP (peptide sequence: SHELPSHPPPSS, peptide start residue: 91) (UniProt Q9NZD4)	-0.0819
NDE1 (peptide sequence: DLRQELAVQQK, peptide start residue: 175) (UniProt Q9NXR1)	0.731
UniProt Q9NZI5 (peptide sequence: RPVLVLQNEALYPQRR, peptide start residue: 9)	0.887
TMOD3 (peptide sequence: STTGPFDREHLLSYLEK, peptide start residue: 59) (UniProt Q9NYL9)	-0.0958
UniProt Q9NX31 (peptide sequence: ASDLSDFQSVSK, peptide start residue: 179)	0.317

Target	log2 fold change
TBC1D7 (peptide sequence: KEQYLDVLHALK, peptide start residue: 82) (UniProt Q9P0N9)	-0.457
UniProt Q9UHA4 (peptide sequence: ELAPLFEELR, peptide start residue: 109)	-0.273
UniProt Q9UC06 (peptide sequence: FGETFAFENR, peptide start residue: 9)	0.1
GMPR2 (peptide sequence: TVEVPFKGDVEHTIR, peptide start residue: 292) (UniProt Q9P2T1)	0.21
MTMR4 (peptide sequence: ELMSQQLK, peptide start residue: 1180) (UniProt Q9NYA4)	-0.352
BCLAF1 (peptide sequence: SIFDHIKLPQASK, peptide start residue: 587) (UniProt Q9NYF8)	-0.291
OGFR (peptide sequence: SSQEIQER, peptide start residue: 159) (UniProt Q9NZT2)	0.313
POGK (peptide sequence: RYDLSLR, peptide start residue: 316) (UniProt Q9P215)	0.303
UniProt Q9UGL1 (peptide sequence: DYIVENEKEKPK, peptide start residue: 286)	0.777
CCDC88C (peptide sequence: SWPSELGSR, peptide start residue: 1510) (UniProt Q9P219)	0.317
UniProt Q9UBC1 (peptide sequence: HDAPALCLLLR, peptide start residue: 76)	-0.36
MED11 (peptide sequence: KDCQMALK, peptide start residue: 88) (UniProt Q9P086)	-0.302
EIF2AK4 (peptide sequence: LHHENIVR, peptide start residue: 643) (UniProt Q9P2K8)	-0.201
DHCR7 (peptide sequence: TASQGQWGR, peptide start residue: 23) (UniProt Q9UBM7)	0.155
UniProt Q9UGP5 (peptide sequence: ATNHNLHITEK, peptide start residue: 249)	-0.719
CALCOCO1 (peptide sequence: EKEQLQEEK, peptide start residue: 485) (UniProt Q9P1Z2)	-0.729
NKIRAS2 (peptide sequence: VKLWEVSVADRR, peptide start residue: 144) (UniProt Q9NYR9)	-0.116
CTNNAL1 (peptide sequence: LLLSSVTK, peptide start residue: 147) (UniProt Q9UBT7)	-0.128

Copied from the list.
In log2 fold change, BCLAF1 (peptide sequence: SIFDHIKLPQASK, peptide start residue: 587) (UniProt Q9NYF8) has the entry -0.291
In log2 fold change, UniProt Q9UHA4 (peptide sequence: ELAPLFEELR, peptide start residue: 109) has the entry -0.273
